Laboratory results reported in PMC10202812, “Resilience to autosomal dominant Alzheimer’s disease in a Reelin-COLBOS heterozygous man” (Nature Medicine, 2023).
These are yes or no findings as the source states them, for the method shown. Some binding calls cover weakened binding; strength is not graded here. For some assays here: Tags and fused reporters may be left off the sequences shown.

T1: neuropilin 1 (NRP1) (UniProt O14786)
T1 sequence (chain, biotinylated at a 1,2 molar ratio): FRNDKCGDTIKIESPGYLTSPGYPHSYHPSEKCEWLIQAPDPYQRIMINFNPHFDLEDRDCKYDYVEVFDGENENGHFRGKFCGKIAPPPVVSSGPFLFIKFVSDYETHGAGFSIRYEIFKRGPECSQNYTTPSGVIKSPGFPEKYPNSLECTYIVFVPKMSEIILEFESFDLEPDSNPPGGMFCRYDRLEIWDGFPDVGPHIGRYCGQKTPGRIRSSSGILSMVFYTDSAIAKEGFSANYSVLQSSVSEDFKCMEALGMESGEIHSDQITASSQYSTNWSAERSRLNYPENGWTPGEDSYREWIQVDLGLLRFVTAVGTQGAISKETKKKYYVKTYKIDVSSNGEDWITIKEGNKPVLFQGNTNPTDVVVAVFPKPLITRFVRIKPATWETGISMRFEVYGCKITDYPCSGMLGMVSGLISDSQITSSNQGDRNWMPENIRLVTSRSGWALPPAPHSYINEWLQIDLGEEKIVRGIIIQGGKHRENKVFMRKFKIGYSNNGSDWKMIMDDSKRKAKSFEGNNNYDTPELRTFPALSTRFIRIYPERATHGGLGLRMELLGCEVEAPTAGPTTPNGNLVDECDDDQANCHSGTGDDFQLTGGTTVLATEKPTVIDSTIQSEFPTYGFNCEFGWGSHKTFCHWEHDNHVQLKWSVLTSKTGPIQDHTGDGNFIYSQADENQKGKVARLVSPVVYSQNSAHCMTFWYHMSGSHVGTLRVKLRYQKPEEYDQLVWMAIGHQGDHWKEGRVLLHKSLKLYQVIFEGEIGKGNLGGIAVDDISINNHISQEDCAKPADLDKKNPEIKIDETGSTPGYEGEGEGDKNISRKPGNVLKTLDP


Key:
[1] = target: mouse RELN-H3448R (mRELN-COLBOS) of the knockin mouse (mouse (endogenous in knockin mice)) (UniProt Q60841); experiment: western blot of higher molecular weight oligomers; cerebellum homogenates of WT, heterozygous and homozygous RELN-H3448R knockin mice; enhanced oligomerization seen only in male mice; details in Supplementary Figs. 8 and 9
[2] = target: T1, neuropilin 1 (NRP1); experiment: BLI; biotinylated NRP1 immobilised on streptavidin biosensor tips (Octet); 30 °C, 1,000 rpm; 240 s association, 300 s dissociation; SD Buffer (PBS, 0.05% Tween 20, 0.01% BSA, pH 7.4); 1:1 binding model, global fitting; both purified

| binding [1] | binding [2] | Molecule |
| --- | --- | --- |
| binds |  | mouse RELN-H3448R (mRELN-COLBOS) of the knockin mouse (from UniProt Q60841 27-3461) |
|  | binds | STRKQNYMMNFSRQHGLRHFYNRRRRSLRRYP (Fc fusion, UniProt P78509 3429-3460) [Fc-fusion WT CTR-RELN (C-terminal region of Reelin, amino acids 3,429-3,460)] |
